At least one structure is not confirmed: it was looked up by name or label, or the drawing left a doubt.
Experiments:
ES2 = assay: MTT assay, ovary (ES2); format: cell-based, human; conditions: at 5-10 ug/ml, 2 days
Procedure: Cells. HTB-9 (bladder), HeLa-S3 (cervix), DU145 (prostate), H460 (lung), MCF-7 (breast), K562 (leukemia), HCT116 (colon), HepG2 (liver), U2OS (bone), T98G (brain), SK-MEL-5 (Skin) and OVCAR 3, ES2 (ovary), Pancreas (Capan), Mouth (KB), Kidney(A498).
MTT Assay. The procedure for MTT assay followed the method described by Carmichael et al. (1987) with modifications. The cells were seeded into a 96-well plate at for 24 hours before drug-treatment. The cells were then exposed to the drugs for 48, 72, or 96 hours. After the drug-treatment, MTT (0.5 mg/mL) was added to cultures and incubated for an hour. The formazan (product of the reduction of tetrazolium by viable cells) formed and was dissolved with DMSO and the O.D. at 490 nm, and was measured by an ELISA reader. The MTT level of the cells before drug-treatment was also measured (T0). The % cell-growth (%G) is calculated as: %G = (TD-T0 / TC-T0) x 100(1), where TC or TD represents O.D. readings of control or drug-treated cells. When T0 > TD, then the cytotoxicity (LC) expressed as % of the control is calculated as: %LC = (TD-T0 / T0) × 100(2).
Method: A. Cells • -WI38 is a Normal Lung fibroblast. Cells were grown in MEM medium supplemented with 10% FCS, antibiotics and glutamine. 20 K cells were seeded per well (96-welled plate) for one day before drug-treatment • -ES2 is an Ovary Clear cells carcinoma. […]

WI38 = assay: MTT assay, normal human lung fibroblast (WI38); format: cell-based; conditions: at 10-20 ug/ml, 6 days
Procedure: Method: A. Cells • -WI38 is a Normal Lung fibroblast. Cells were grown in MEM medium supplemented with 10% FCS, antibiotics and glutamine. 20 K cells were seeded per well (96-welled plate) for one day before drug-treatment • -ES2 is an Ovary Clear cells carcinoma. Cells were grown in RPMI-1640 medium supplemented with 10% FCS, antibiotics and glutamine. 10 K cells were seeded per well (96-welled plate) for one day before drug-treatment.
B. Drug treatment: • -Drug: Tig-S. stored as 1000x stock solution in DMSO. • -Drug concentration used: from 0.15 - 20 ug/ml. • -Drug-treatment was carried out for 2 days (ES2) or 6 days (WI38). For the 6 days incubation, cells were fed with fresh medium (with drug) on day 3 and 5.
C. At the end of the drug-treatment, cytotoxic test was performed with MTT assay.

In the case of `CC=C(C)C(=O)OCC1(C)C(O)CCC2(C)C1CCC1(C)C2CC=C2C3CC(C)(C)C(OC(=O)C(C)=CC)C(O)C3(CO)C(O)CC21C` (centres unmarked) [Tig-S], the “cells growth, ES2” value (ES2) is reported as “negative 70%” and the “cell growth, WI38” value (WI38) is reported as “about negative 10%”.

Source: US20230340012A1, “NATURAL AND SYNTHETIC COMPOUNDS FOR TREATING CANCER AND OTHER DISEASES” (PACIFIC ARROW LIMITED, priority 2009, published 2023)
